# Test results: patent US10780076B2, “Inhibition of cancer cell motility” (Northwestern University, priority 2014, dated 2020)
# The chains behind the UniProt entries cited, without tags or fusion partners. Where a name states a change or a piece, a line headed by the entry shows the natural chain unless it says otherwise.
# UniProt P08238, whole entry: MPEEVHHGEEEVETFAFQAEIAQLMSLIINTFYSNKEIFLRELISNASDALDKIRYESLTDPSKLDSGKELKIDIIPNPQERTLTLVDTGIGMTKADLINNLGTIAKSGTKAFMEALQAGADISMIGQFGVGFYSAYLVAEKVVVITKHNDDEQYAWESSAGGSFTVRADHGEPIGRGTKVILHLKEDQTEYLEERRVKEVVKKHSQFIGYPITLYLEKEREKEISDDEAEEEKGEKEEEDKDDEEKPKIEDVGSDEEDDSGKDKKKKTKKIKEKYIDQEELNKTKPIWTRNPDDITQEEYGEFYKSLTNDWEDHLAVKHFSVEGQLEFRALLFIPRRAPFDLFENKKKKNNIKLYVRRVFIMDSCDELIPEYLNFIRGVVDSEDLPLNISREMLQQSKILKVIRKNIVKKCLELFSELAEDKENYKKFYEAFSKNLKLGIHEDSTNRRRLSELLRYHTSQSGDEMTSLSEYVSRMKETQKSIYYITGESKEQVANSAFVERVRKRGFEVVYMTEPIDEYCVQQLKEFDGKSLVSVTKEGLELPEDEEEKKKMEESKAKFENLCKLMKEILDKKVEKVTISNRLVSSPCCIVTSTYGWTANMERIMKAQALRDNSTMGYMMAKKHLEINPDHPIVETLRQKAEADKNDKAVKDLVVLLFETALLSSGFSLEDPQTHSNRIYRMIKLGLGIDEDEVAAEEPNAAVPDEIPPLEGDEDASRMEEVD
# UniProt Q16543: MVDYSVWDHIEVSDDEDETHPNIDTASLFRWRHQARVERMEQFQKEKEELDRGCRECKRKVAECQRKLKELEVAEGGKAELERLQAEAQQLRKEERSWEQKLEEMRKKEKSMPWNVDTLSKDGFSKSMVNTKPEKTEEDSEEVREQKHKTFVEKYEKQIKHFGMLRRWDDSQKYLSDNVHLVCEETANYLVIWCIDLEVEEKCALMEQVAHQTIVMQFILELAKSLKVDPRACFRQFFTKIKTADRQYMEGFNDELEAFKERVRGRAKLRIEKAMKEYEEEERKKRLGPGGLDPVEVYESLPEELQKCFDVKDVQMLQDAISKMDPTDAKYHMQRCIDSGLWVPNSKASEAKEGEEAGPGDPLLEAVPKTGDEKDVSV
# For at least one compound, name, drawing or mass did not settle the structure.
# Columns and labels:
# [1] = molecular target: CDC37/HSP90β heterocomplex (Homo sapiens, UniProt P08238+Q16543); assay: DARTS assay combining CDC37 and HSP90β; type: binding
# [2] = system: AR transcriptional activity in LNCaP cells; assay: PSA expression by qRT/PCR; type: cell-based, human
SMILES,"concentration at which DARTS effects were evident ([1]; CDC37 increased, HSP90β degradation product decreased)",protection from thermolysin digestion ([1]; equimolar HSP90β and CDC37),"R1881-mediated PSA expression ([2]; CSS, 1.0 nM R1881, 1 or 3 days)","PSA expression, agent by itself ([2]; charcoal stripped serum, 10 uM)"
"O=C1c2ccccc2OCC1c1ccc(F)cc1 (racemic) [KBU2046, 4′-fluoroisoflavanone]",100 M,protected both proteins from digestion,–,–
"CC(O)(CS(=O)(=O)c1ccc(F)cc1)C(=O)Nc1ccc(C#N)c(C(F)(F)F)c1 (stereo not shown) [bicalutamide, reference compound]",–,–,decreases R1881-mediated increases in PSA,weak agonist by itself
